# Results reported in patent publication EP1946777A1, “Substituted pyrazoline for preventing weight gain” (Laboratorios del Dr. Esteve S.A., priority 2007, dated 2008).
# At least one compound was matched to its structure with a doubt left.
# How the values were obtained:
# [1] = Body weight and olanzapine-induced weight-gain in rats on a high-fat diet, repeated oral administration; format: in vivo, female Sprague-Dawley rats; settings: once daily po for 14 days; olanzapine 3 mg/kg, pyrazoline 30 mg/kg, alone or combined; Figure 1
# [2] = Food intake and olanzapine-induced hyperphagia in rats on a high-fat diet, repeated oral administration; format: in vivo, female Sprague-Dawley rats; settings: olanzapine 3 mg/kg, pyrazoline 30 mg/kg, alone or combined
compound,measurement,setting,value
Cc1cc2c(s1)Nc1ccccc1N=C2N1CCN(C)CC1 [olanzapine],body weight compared to the vehicle-treated controls,[1],marked and sustained increase in the body weights
same,mean body weight on Day 15 versus vehicle-treated controls (combination: also versus olanzapine),[1],statistically (p<0.01) greater
same,food intake compared to the vehicle-treated controls,"[2]; once daily po for 14 days, Figures 2 and 3",evoked an increase in food intake
same,cumulative intake of food over the first week versus vehicle controls (combination: also versus olanzapine),"[2]; once daily po, Figure 3",statistically greater (p < 0.05)
